Test results taken from ChEMBL document CHEMBL3044639, “Synthesis and biologic activities of some novel heterocyclic chalcone derivatives” (Med Chem Res, 2013).

System: Staphylococcus aureus
Experiment: Antibacterial activity against Staphylococcus aureus 1199B overexpressing NorA assessed as growth inhibition after 18 hr by broth checkerboard method
Type: functional

Compound: O=C(O)c1cn(C2CC2)c2cc(N3CCNCC3)c(F)cc2c1=O [CIPROFLOXACIN]
- MIC: 8 µg/mL
